Results of single-concentration screens

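Growth of Mycobacterium tuberculosis over 3 days (7H9 medium with glucose and tyloxapol); the read-out is not stated. Compounds at 50 µM. Direction is inferred from retests: higher values go with more growth inhibition. Size under these conditions: about 69,000 compounds, about 760 of them at 50% or above in at least one test.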

Values are the deposited “Percent Effect”, in %.
How 0% and 100% were set is not recorded. Most values in the screen are low, and negative values occur.
Compounds were drawn at random from those tested, without regard to their results.
Two or more numbers in one place are separate tests of the same structure; such repeats can differ widely.

COc1ccc(CN2CCn3c(CO)nnc3C2)cc1CN1CCCC1.O=C(O)CC(O)(CC(=O)O)C(=O)O read 7.827%.
CSc1ccc(Cl)c(C(=O)N2CCCC(CNS(C)(=O)=O)C2)c1 (stereo not drawn) read 7.738%.
CC(=O)c1ccc(N2CCN(C(=O)c3cnn4c3OCCC4)CC2)cc1 read -5.714%.
Cc1cnc2c(S(=O)(=O)NCC3CCN(C4CC4)C3)cccc2c1 (stereo not drawn) read 56.52%.
CC(=O)NCCNC(=O)c1cc(Br)c2c(c1)OCCO2 read -26.74%.
Cc1cncc(C2CCN(Cc3cnc(C)nc3)CC2)n1 read 1.339%.
COCCN1CCC(NC(=O)C/C=C/c2ccc(C(C)C)cc2)CC1 read 17.91% and 21.72%.
CCc1nc(C2CCCN(C(=O)c3cccc(Cl)c3)C2)no1 (stereo not drawn) read -9.278%.
NCC1CN(C(=O)Cn2ncc(N3CCCCC3)cc2=O)CCO1 (stereo not drawn) read 22.09%.
Cc1ccc(N2CCCC(N(C)c3nn4cc(C)nc4s3)C2)nn1 (stereo not drawn) read -3.514%.
Cc1ccc(S(=O)(=O)NCC2(O)CCOc3ccccc32)s1 (stereo not drawn) read 12.54%.
CC(C)OC(=O)N1CCC(Cc2cccc(C(N)=O)c2)C1 (stereo not drawn) read 16.44%.
CCn1ncc2c1C(COCC1CC1)CN(c1ccncn1)C2.O=C(O)C(F)(F)F.O=C(O)C(F)(F)F (stereo not drawn) read -7.078%.
Cc1nc2ccc(-n3ncnc3[C@@H]3CCCN3S(C)(=O)=O)cc2s1 read -48.95%.
O=C(O)C(F)(F)F.O=C(O)C(F)(F)F.O=C(c1cccnc1)N1CCC[C@]2(C[C@H](Oc3ncccc3F)CO2)C1 read -0.404%.
O=C(NCCO)C1(CC2CC(c3ccc(F)cc3)=NO2)CCOCC1 (stereo not drawn) read -28.82%.
Cc1ccc2cc(CNCCCO)c(=O)[nH]c2c1 read -14.24%.
COc1ncccc1CNc1cc(N2CCCC2CO)ncn1 (stereo not drawn) read 23.67%.
O=C(Cn1nc2c(cc1=O)CCCC2)N[C@@H](Cc1ccccc1)C(=O)O read -35.91%.
Cc1noc(C)c1CN1CCCC1C(=O)OCc1ccccc1 (stereo not drawn) read -7.311% and 14.85%.
O=C(O)C(F)(F)F.[H][C@@]12CN(Cc3cc[nH]n3)C[C@]1([H])OCCN2c1cnccn1 read 21.08%.
Cc1cc(=O)n2c(n1)SCC2CC(=O)NCc1cc(-c2ccco2)on1 (stereo not drawn) read -38.79%.
CCc1nc(C(=O)N2CCN(C)CC2)nn1-c1ccccc1Cl read -9.18%.
CN(Cc1ccsc1)C(=O)CN1CCCCC1Cn1cccn1 (stereo not drawn) read -5.948%.
O=C(C1CCOCC1)N1CC[C@@H](O)[C@@H]1Cc1ccncc1 read -21.61%.
Cc1ccc(S(=O)(=O)Cc2noc([C@@H]3C[C@@H](O)CN3C)n2)cc1 read 5.123% and -24.06%.
CCN(C)C(=O)c1cccc(S(=O)(=O)NCCc2csc(N)n2)c1 read -3.077% and -46.68%.
Cc1cc(N2CCCC(O)(CN(C)C)C2)c2cc3c(cc2n1)OCO3 (stereo not drawn) read -13.85%.
[H][C@@]12C[C@@H](C(=O)NC(C)C)CN(Cc3ccc4ccccc4n3)[C@]1([H])CCO2 read -37.88%.
COCCN(Cc1ccccc1)Cc1csc(-c2ncccn2)n1 read 14.52% and 3.789%.
CC(=O)N1CCN(Cc2ccc(Cl)c(F)c2)CC(O)C1 (stereo not drawn) read -62.77% and -1.73%.
CC(C)Oc1cc(N2C[C@H](C3CC3)[C@@H](N)C2)nc(N)n1 read -12.2%.
CCN1CCN(c2ccc(CNC(=O)c3ccccc3F)cn2)CC1 read -1.052%.
O=C1CN(C(=O)c2nnn(-c3ccc(C(F)(F)F)cc3)n2)CCN1 read 4.403% and 11.57%.
N#Cc1ccc(F)c(CN2CCNC(=O)C2c2cccs2)c1 (stereo not drawn) read -38.92% and -8.646%.
CN(C)C(=O)N1CCn2nc(CNC(=O)CCc3ccccn3)cc2C1 read -4.843% and -5.398%.
CN1CCN(C(=O)c2cc3sccc3n2Cc2ccccc2Cl)CC1 read 18.64% and 20.53%.
COCc1ccc(CNC(=O)C2=NN(c3ccccc3)C(=O)CN2)cc1 read 25.61%.
[H][C@@]12CC[C@H](Oc3ccccc3F)[C@]1([H])CN(C(=O)c1cnco1)C2 read -19.59%.
CCN(Cc1ccncc1)C1CCCN(Cc2ccc(F)cc2OC)C1 (stereo not drawn) read 43.36%.
O=C(NCCNc1cnccn1)N1CCc2ccccc2C1 read -17.56%.
O=C1NC(C(=O)NCc2cccnc2Oc2ccc(F)cc2F)CO1 (stereo not drawn) read -11.03%.
Fc1cnc(N2CCc3nnc(COc4ccccn4)n3CC2)nc1.O=C(O)C(F)(F)F read -5.544% and -1.084%.
Cc1cc2ccncc2n1CC1(O)CCN(C(=O)c2ccccn2)CC1 read 0.336%.
CC1(CCNC(=O)NCc2ccsc2)OCCO1 read 14.49%.
O=C(O)[C@@H]1CN(C(=O)Cc2ccccc2Cl)C[C@H]1C1CC1 read -10.8%.
Cn1cnc(S(=O)(=O)NCCCN2CCCCCC2=O)c1Cl read -39.6% and 0.9287%.
Cc1cc(NCc2cc3n(n2)CCCN(C(=O)C2CCC2)C3)nc(N)n1 read -19.79%.
COCCN1CCC(CN(CC2CCCO2)C(=O)CCC(F)(F)F)CC1 (stereo not drawn) read 32.74%.
Cc1cccc2c1OCCCC2NCc1nccn1Cc1ccccc1 (stereo not drawn) read 51.91%.
COc1cc(N[C@@H](Cc2ccccc2)C(N)=O)ncn1 read -12.1%.
CC(C)c1nc2c(n1C)CCN(CCCOc1ccc(C#N)cc1)C2 read -11.21%.
NC(=O)CS(=O)(=O)Cc1ccc(OCc2ccc(F)cc2)cc1 read 19.6%.
CCCOc1cc(C)ccc1NC(=O)NCCNC(=O)C(C)C read -18.51%.
O=C(c1cc(F)ccc1F)C1CCN(C(=O)c2cnccn2)CC1 read 9.22%.
Cc1nn(C)c(Cl)c1C1CCCN1C(=O)CCNc1ncccn1 (stereo not drawn) read 0.06748%.
CCn1nc(CNC(=O)C2CCCN(C(=O)COC)C2)c2ccccc21 (stereo not drawn) read 7.684%.
CCCS(=O)(=O)N1CCC(n2nc(-c3cc(C)oc3C)ccc2=O)CC1 read 24.89%.
O=C1NCC2(CCN(C(=O)c3ccc4c(c3)CCCO4)CC2)O1 read 14.87%.

The first 7 entries again:

* COc1ccc(CN2CCn3c(CO)nnc3C2)cc1CN1CCCC1.O=C(O)CC(O)(CC(=O)O)C(=O)O | 7.827%
* CSc1ccc(Cl)c(C(=O)N2CCCC(CNS(C)(=O)=O)C2)c1 (stereo not drawn) | 7.738%
* CC(=O)c1ccc(N2CCN(C(=O)c3cnn4c3OCCC4)CC2)cc1 | -5.714%
* Cc1cnc2c(S(=O)(=O)NCC3CCN(C4CC4)C3)cccc2c1 (stereo not drawn) | 56.52%
* CC(=O)NCCNC(=O)c1cc(Br)c2c(c1)OCCO2 | -26.74%
* Cc1cncc(C2CCN(Cc3cnc(C)nc3)CC2)n1 | 1.339%
* COCCN1CCC(NC(=O)C/C=C/c2ccc(C(C)C)cc2)CC1 | 17.91% and 21.72%

Measurements from “University of Dundee, Small-Polar-MMV Screening Library” (2021), ChEMBL document CHEMBL3988442.